# Results from PMC3735429, “Plasmodium falciparum encodes a conserved active inhibitor-2 for Protein Phosphatase type 1: perspectives for novel anti-plasmodial therapy” (BMC Biology, 2013).
# What was measured:
# [1] = biological target: PfPP1-Gal4-BD (Plasmodium falciparum); experiment: two-hybrid; PfPP1 on Gal4-BD (Y187) mated with PfI2 versions on Gal4-AD (AH109); growth of diploids on SD-LWH for 4 days
# [2] = biological target: PfPP1-Gal4-BD (Plasmodium falciparum); experiment: two-hybrid; PfPP1 on Gal4-BD (Y187) mated with PfI2 versions on Gal4-AD (AH109); growth of diploids on stringent SD-LWHA for 4 days
# [3] = biological target: His6-PfPP1 (Plasmodium falciparum); experiment: pull-down; His6-PfPP1 retained on Ni-NTA beads; 10 mg total protein extract of asynchronous P. falciparum, pre-cleared on Ni-NTA beads, incubated overnight; eluate blotted with anti-PfI2; only the target purified
binding [1],binding [2],binding [3],Binder
binds,binds,,"PfI2(19–144)-Gal4-AD (domain or fragment, UniProt C0H480 19-144) VTINEQDKERGSRMKILEPNTPFNFILMDSASEDEASKYGDVKGSDEGQNNIADDLINKLNQLVEKQENKGVSNIDFKEKRKKHYNEYKMLQKLRKSGTLDDIDEEYKPDNKDSNCDNSNMNESEE"
no binding,,,"PfI2(1–94)-Gal4-AD (domain or fragment, UniProt C0H480 1-94) MKKKVDKSVTKKTISWDEVTINEQDKERGSRMKILEPNTPFNFILMDSASEDEASKYGDVKGSDEGQNNIADDLINKLNQLVEKQENKGVSNID"
,,binds,"native PfI2 (protein, UniProt C0H480 1-144) MKKKVDKSVTKKTISWDEVTINEQDKERGSRMKILEPNTPFNFILMDSASEDEASKYGDVKGSDEGQNNIADDLINKLNQLVEKQENKGVSNIDFKEKRKKHYNEYKMLQKLRKSGTLDDIDEEYKPDNKDSNCDNSNMNESEE"
binds,binds,,"PfI2-Gal4-AD (protein, UniProt C0H480 1-144) MKKKVDKSVTKKTISWDEVTINEQDKERGSRMKILEPNTPFNFILMDSASEDEASKYGDVKGSDEGQNNIADDLINKLNQLVEKQENKGVSNIDFKEKRKKHYNEYKMLQKLRKSGTLDDIDEEYKPDNKDSNCDNSNMNESEE"

# Results are given in words; binding and its absence hold for the method and conditions named. Binding can be weak; no strength is given. For part of these data: Sequences can lack the tags named with a protein. For part of these data: In cells and extracts the contact can be indirect.
